PubChem BioAssay AID1259308 | NCATS, 2017
The deposit covers about 59,000 reagents; shown is an unselected part. About 1,510 of them (2.6%) count as active. 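Calls use total luciferase alone and ignore viability, so some active siRNAs may act by altering cell number.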 Unmarked entries are inactive. Reagents against one gene are numbered here.

- Screen: 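Genes whose loss raises luciferase production in HEK293 cells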 (primary screen)
- System: human HEK293 embryonic kidney cells stably expressing firefly luciferase (HEK-CMV-Luc2-Hygro)
- Knock-down reagent: single siRNA against human genes, 0.8 pmol siRNA per well
- Duration: 72 h
- Measurement: 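Luciferase light (ONE-Glo) measured on one replicate plate set and viability (CellTiter-Glo) on the other, scaled to a negative control siRNA, with robust z-scores and luciferase per cell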
- Direction: total luciferase, z-score and total luciferase, % of control: higher = more reporter protein produced; luciferase per cell, z-score: higher = more reporter output per viable cell; viable cells, % of control: higher = more viable cells
- Hit rule: 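An siRNA counts as active if its total luciferase robust z-score exceeds 3; genes with two or more such siRNAs out of three were retested with fresh siRNAs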
- Calls: active = raised luciferase; inactive = no rise

gene knocked down	reagent	total luciferase, z-score	total luciferase, % of control	luciferase per cell, z-score	viable cells, % of control
ZBTB46	1	0.968	101	0.74	93
ZBTB46	2	2.79	137	2.37	82.2
ZBTB46	3	0.568	93.2	1.98	61.8
TWF2	1	-0.396	74	-0.174	86.6
TWF2	2	-1.36	54.8	-1.6	93.5
TWF2	3	-1.37	54.6	-1.03	80.2
KRAS	1	0.105	84	0.236	88.2
KRAS	2	-0.572	70.5	-0.88	99.3
KRAS	3	-0.342	75.1	-0.535	96.6
COQ7	1	0.083	83.5	-0.146	97
COQ7	2	1.81	118	1.73	83.5
COQ7	3	0.234	86.5	0.174	92.4
HSFX1	1	0.126	84.4	1.04	71.7
HSFX1	2	-2.49	32.4	-3.56	92.4
HSFX1	3	-1.85	45.1	-1.82	81.2
TRPM7	1	0.26	87.1	0.27	90.6
TRPM7	2	-1.4	54.1	-1.6	92
TRPM7	3	-1.58	50.5	-0.826	70.1
NRXN1-DT	1	5.32 (active)	188	4	73.1
NRXN1-DT	2	-0.149	78.9	-0.87	111
NRXN1-DT	3	0.177	85.4	-0.54	110

Entries above whose target name starts with T or t (6):
gene knocked down	reagent	total luciferase, z-score	total luciferase, % of control	luciferase per cell, z-score	viable cells, % of control
TWF2	1	-0.396	74	-0.174	86.6
TWF2	2	-1.36	54.8	-1.6	93.5
TWF2	3	-1.37	54.6	-1.03	80.2
TRPM7	1	0.26	87.1	0.27	90.6
TRPM7	2	-1.4	54.1	-1.6	92
TRPM7	3	-1.58	50.5	-0.826	70.1

Additional entries follow:
gene knocked down	reagent	total luciferase, z-score	total luciferase, % of control	luciferase per cell, z-score	viable cells, % of control
WHR1	1	-0.346	75	0.62	71.2
WHR1	2	-0.247	77	0.3	79.5
WHR1	3	0.0188	82.3	-0.22	97.4
TP53AIP1	1	-2.29	36.4	-2.64	81.5
TP53AIP1	2	0.635	94.5	0.587	90.5
TP53AIP1	3	0.812	98	0.662	92
LAT2	1	0.581	93.4	0.0846	102
LAT2	2	4.84 (active)	178	3.79	73.4
LAT2	3	1.75	117	0.54	113
ADORA2A	1	3.52 (active)	152	2.68	83.8
ADORA2A	2	2.61	134	2.07	86.7
ADORA2A	3	0.225	86.4	0.0588	95
APAF1	1	0.435	90.5	0.666	84.9
APAF1	2	0.376	89.4	-0.0428	101
APAF1	3	-1.28	56.4	-1.13	84.7
MRPS31	1	1.65	115	1.39	89
MRPS31	2	-0.036	81.2	0.33	83.2
MRPS31	3	-0.873	64.5	-0.964	92.9
